Results are given in words; binding and its absence hold for the method and conditions named. Some results given as binding are weak or reduced against the parent protein; the word gives no strength.
Assays:
[1] = molecular target: Plexin B1 on the cell surface of a stable 293 cell line (293/Plexin) (UniProt O43157); test: flow cytometry on 293/Plexin cells (blocking assay of FIG. 1); bound CD100-His detected with biotinylated anti-His and streptavidin-APC
[2] = molecular target: Plexin B1 on the cell surface of a stable 293 cell line (293/Plexin) (UniProt O43157); test: flow cytometry on 293/Plexin cells (blocking assay of FIG. 1); bound CD100 detected with biotinylated anti-His and streptavidin-APC

The chains behind the UniProt entries cited, without tags or fusion partners. Where a name states a change or a piece, a line headed by the entry shows the natural chain unless it says otherwise. Residues count along the entry.
UniProt O43157, residues 20-2135: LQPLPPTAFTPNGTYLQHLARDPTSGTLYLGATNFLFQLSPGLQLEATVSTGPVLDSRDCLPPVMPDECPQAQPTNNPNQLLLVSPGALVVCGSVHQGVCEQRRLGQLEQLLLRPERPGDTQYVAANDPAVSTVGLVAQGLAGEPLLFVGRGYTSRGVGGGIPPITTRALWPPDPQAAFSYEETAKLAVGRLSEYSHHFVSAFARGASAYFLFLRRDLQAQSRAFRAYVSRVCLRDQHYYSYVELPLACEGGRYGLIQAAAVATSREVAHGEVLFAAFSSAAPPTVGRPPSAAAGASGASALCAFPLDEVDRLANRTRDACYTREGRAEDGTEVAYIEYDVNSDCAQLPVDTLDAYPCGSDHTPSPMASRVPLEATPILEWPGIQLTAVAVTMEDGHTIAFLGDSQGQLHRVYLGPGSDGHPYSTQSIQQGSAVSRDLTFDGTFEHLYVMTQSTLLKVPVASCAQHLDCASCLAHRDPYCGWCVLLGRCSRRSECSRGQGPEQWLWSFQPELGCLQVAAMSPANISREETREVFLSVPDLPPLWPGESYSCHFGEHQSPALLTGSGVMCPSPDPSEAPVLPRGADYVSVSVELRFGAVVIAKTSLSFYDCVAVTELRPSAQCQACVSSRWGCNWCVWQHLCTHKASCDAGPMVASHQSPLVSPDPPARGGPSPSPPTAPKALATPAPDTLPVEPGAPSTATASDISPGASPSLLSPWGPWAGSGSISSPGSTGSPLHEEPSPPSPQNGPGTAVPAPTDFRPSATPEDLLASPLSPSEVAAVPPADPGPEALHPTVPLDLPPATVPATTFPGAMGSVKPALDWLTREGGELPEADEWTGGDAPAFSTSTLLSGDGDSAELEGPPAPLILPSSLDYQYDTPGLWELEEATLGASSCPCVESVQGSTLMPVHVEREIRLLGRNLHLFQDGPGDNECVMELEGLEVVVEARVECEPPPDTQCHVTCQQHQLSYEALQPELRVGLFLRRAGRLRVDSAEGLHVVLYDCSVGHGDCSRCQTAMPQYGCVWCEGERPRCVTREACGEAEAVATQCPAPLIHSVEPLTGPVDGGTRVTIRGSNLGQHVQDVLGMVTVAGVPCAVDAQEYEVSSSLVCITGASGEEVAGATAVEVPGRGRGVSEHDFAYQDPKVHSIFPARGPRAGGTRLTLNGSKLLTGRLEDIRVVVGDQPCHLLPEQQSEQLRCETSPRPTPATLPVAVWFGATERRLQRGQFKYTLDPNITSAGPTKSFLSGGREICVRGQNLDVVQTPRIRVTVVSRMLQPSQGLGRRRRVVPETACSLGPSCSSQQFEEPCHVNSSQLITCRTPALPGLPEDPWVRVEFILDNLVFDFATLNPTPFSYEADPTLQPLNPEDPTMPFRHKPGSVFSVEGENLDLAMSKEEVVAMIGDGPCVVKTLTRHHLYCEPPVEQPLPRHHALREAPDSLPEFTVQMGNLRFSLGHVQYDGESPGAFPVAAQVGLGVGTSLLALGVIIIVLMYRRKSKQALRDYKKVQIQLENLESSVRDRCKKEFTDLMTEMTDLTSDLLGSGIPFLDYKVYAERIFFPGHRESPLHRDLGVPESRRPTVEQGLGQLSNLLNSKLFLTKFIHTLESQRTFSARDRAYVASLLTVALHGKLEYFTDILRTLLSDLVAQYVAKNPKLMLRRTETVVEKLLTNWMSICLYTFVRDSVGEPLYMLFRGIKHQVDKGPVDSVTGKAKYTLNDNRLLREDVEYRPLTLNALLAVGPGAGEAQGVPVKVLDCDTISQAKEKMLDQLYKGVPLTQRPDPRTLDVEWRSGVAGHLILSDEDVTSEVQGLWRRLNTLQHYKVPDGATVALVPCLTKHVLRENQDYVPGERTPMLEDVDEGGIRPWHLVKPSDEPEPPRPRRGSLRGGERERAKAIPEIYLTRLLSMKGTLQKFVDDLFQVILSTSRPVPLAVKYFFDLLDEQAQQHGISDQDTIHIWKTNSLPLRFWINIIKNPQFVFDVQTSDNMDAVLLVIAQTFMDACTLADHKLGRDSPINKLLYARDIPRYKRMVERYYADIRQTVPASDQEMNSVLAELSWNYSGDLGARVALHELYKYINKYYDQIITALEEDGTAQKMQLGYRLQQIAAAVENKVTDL
UniProt Q92854: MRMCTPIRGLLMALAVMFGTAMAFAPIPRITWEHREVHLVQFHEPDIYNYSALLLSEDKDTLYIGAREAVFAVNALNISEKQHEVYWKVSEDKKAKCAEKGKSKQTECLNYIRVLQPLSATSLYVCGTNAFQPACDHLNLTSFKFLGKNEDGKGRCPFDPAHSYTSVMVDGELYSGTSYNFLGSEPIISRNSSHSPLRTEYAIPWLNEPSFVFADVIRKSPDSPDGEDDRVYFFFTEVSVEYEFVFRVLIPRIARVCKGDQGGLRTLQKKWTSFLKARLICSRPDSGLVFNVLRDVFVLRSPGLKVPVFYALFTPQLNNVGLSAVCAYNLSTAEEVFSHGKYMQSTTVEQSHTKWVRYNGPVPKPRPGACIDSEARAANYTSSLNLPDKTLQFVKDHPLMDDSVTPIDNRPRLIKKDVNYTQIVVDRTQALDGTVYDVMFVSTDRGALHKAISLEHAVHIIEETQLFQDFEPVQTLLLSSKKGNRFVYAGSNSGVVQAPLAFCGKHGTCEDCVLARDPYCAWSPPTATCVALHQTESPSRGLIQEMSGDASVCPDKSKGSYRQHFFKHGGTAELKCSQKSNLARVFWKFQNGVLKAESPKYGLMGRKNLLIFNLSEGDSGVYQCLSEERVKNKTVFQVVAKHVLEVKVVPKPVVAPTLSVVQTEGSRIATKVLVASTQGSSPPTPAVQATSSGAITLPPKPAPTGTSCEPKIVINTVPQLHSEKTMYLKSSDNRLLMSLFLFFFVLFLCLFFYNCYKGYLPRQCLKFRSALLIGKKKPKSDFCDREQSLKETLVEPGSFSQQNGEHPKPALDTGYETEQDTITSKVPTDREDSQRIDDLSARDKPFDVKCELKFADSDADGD

| binding [1] | binding [2] | Substance |
| --- | --- | --- |
| binds | – | human CD100-His (C-terminal His tag) (from UniProt Q92854 22-734) (ligand) |
| – | binds | marmoset CD100 (from UniProt A0A8I3W811 22-734) (ligand) |
